Our source for the binding values is paper PMC3584131.

Chains of the proteins cited; added tags and fusions are not shown.
UniProt Q9QZS3: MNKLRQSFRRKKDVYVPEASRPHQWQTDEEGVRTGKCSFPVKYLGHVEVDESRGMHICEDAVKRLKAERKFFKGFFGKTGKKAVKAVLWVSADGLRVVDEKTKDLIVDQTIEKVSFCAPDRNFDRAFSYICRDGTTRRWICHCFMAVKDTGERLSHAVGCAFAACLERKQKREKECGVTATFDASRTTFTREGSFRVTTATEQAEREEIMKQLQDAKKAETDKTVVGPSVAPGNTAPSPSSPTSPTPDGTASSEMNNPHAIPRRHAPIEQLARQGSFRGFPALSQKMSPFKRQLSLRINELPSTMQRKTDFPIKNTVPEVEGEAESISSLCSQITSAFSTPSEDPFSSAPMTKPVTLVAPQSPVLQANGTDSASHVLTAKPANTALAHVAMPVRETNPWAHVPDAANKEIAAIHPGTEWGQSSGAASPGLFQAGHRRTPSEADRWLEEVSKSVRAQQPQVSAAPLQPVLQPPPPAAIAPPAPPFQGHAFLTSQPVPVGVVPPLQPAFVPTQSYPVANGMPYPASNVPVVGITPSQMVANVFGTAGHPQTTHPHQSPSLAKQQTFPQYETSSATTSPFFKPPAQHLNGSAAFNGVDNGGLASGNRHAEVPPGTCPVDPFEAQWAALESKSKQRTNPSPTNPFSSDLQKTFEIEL

No constants are given. Whether binding was seen depends on the method and setting. In cells and extracts the contact can be indirect. A yes stands for co-enrichment or nearness to the bait. Other partners may have been found.

This experiment concerns the target endogenous Numb (CD133+/CD49f+ murine liver TISCs) (mouse (endogenous in murine TISCs)) (UniProt Q9QZS3). Put plainly: affinity purification with mass spectrometry; endogenous Numb immunopurified with anti-Numb (H-70) antibody and protein G-PLUS agarose from pooled sucrose gradient fractions 8-13 of murine TISC cytoplasmic lysate; washes in Buffer W (20 mM Tris pH 7.3, 300 mM NaCl, 0.5% triton X-100, 2% glycerol); LC-MS/MS; anti-GFP control.

B1: endogenous TBC1D15 (murine TISCs) (protein, UniProt Q9CXF4 1-671)
chain: MAAAGVVSGKIIYEQEGVYIHSSCGKANDQDSLISGILRVLEKDAEVIVDWRPLDDALDSSSILCAGKDSSSVVEWTQAPKERAHRGSDQQSSYEAEWDMVTTVSFKKKPHTNGDAPGHRNGKSKWSFLFSLADLKSVKQSKEGMGWSYLVFCLKDDVMLPALHFHQGDSKLLIESLEKYVVLCESPQDSRTLLVNCQNKSLSQSFENLLDEPAYGLIQKIKKDPYTATMVGFSKVTNYIFDSLRGSDPSTHQRPPSEMADFLSDAIPGLKINQQEEPGFEVITRIDLGERPVVQRREPVSLEEWNKSLDPEGRLVAVESMKQKIFRGGLSHSLRKQAWKFLLGYFPWDSTKEERTQLQKQKTDEYFRMKLQWKSVSEAQEKRNSRLRDYRSLIEKDVNRTDRTNKFYEGQDNPGLILLHDILMTYCMYDFDLGYVQGMSDLLSPLLYVMENEVDAFWCFASYMDQMHQNFEEQMQGMKTQLIQLSTLLRLLDSGFCSYLESQDSGYLYFCFRWLLIRFKREFSFLDILRLWEVMWTELPCKNFHLLLCCAILESEKQQIMAKHYGFNEILKHINELSMKIDVEDILCKAEAISLQMAQCKELPQAVCEILGLQDSEITTPDSDTDENVGSPCPVSAFPSSTLPILAASEAKDDSPTQTLASPNACRLTPA
With B1, the binding result was “binds”.
